Assay results from the supplement of paper PMC10849652.
Some of the results follow.

Chains of the proteins cited; added tags and fusions are not shown. Lines headed by an entry give the natural chain unless they say otherwise; changes in a name come on top.
UniProt Q8N300: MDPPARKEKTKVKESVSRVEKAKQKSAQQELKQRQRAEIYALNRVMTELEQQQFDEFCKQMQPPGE
UniProt Q15543, whole entry, looked up: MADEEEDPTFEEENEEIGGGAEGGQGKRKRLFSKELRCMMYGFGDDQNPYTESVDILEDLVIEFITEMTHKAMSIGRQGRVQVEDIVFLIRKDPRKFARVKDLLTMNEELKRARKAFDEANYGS
UniProt O60506: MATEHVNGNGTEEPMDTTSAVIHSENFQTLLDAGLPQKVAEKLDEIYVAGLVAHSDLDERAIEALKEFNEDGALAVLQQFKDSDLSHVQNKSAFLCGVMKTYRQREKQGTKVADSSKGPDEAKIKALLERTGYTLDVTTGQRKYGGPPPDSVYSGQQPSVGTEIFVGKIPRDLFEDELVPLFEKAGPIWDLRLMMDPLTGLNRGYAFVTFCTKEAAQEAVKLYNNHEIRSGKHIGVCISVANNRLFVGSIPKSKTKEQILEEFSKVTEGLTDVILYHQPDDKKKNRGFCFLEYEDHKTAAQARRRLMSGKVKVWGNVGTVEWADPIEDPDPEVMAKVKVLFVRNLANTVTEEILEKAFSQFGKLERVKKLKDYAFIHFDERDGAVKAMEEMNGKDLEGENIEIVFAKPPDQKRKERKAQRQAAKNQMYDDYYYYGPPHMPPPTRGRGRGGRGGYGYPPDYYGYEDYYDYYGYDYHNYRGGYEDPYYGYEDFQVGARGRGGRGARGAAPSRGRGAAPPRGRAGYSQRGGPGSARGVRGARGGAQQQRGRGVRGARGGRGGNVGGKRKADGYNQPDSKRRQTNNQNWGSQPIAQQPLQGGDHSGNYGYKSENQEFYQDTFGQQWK
UniProt Q9UH99: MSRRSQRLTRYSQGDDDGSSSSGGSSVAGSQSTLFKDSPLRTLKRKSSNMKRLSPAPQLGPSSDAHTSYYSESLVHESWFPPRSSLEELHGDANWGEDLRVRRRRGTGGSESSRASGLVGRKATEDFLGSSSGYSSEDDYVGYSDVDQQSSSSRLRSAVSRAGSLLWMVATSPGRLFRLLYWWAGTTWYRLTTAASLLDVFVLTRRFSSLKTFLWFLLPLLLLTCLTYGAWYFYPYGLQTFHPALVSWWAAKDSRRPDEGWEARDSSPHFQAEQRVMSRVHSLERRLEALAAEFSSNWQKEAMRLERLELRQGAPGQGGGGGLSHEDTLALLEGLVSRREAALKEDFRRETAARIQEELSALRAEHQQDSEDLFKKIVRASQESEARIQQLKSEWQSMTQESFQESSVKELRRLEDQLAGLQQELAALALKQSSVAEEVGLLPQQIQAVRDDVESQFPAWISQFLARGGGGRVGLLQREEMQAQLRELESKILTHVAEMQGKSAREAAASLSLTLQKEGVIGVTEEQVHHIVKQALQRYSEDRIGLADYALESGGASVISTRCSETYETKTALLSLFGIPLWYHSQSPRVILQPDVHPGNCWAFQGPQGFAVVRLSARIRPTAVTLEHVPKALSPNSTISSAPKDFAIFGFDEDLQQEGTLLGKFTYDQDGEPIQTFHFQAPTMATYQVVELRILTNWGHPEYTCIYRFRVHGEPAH
UniProt Q5T011: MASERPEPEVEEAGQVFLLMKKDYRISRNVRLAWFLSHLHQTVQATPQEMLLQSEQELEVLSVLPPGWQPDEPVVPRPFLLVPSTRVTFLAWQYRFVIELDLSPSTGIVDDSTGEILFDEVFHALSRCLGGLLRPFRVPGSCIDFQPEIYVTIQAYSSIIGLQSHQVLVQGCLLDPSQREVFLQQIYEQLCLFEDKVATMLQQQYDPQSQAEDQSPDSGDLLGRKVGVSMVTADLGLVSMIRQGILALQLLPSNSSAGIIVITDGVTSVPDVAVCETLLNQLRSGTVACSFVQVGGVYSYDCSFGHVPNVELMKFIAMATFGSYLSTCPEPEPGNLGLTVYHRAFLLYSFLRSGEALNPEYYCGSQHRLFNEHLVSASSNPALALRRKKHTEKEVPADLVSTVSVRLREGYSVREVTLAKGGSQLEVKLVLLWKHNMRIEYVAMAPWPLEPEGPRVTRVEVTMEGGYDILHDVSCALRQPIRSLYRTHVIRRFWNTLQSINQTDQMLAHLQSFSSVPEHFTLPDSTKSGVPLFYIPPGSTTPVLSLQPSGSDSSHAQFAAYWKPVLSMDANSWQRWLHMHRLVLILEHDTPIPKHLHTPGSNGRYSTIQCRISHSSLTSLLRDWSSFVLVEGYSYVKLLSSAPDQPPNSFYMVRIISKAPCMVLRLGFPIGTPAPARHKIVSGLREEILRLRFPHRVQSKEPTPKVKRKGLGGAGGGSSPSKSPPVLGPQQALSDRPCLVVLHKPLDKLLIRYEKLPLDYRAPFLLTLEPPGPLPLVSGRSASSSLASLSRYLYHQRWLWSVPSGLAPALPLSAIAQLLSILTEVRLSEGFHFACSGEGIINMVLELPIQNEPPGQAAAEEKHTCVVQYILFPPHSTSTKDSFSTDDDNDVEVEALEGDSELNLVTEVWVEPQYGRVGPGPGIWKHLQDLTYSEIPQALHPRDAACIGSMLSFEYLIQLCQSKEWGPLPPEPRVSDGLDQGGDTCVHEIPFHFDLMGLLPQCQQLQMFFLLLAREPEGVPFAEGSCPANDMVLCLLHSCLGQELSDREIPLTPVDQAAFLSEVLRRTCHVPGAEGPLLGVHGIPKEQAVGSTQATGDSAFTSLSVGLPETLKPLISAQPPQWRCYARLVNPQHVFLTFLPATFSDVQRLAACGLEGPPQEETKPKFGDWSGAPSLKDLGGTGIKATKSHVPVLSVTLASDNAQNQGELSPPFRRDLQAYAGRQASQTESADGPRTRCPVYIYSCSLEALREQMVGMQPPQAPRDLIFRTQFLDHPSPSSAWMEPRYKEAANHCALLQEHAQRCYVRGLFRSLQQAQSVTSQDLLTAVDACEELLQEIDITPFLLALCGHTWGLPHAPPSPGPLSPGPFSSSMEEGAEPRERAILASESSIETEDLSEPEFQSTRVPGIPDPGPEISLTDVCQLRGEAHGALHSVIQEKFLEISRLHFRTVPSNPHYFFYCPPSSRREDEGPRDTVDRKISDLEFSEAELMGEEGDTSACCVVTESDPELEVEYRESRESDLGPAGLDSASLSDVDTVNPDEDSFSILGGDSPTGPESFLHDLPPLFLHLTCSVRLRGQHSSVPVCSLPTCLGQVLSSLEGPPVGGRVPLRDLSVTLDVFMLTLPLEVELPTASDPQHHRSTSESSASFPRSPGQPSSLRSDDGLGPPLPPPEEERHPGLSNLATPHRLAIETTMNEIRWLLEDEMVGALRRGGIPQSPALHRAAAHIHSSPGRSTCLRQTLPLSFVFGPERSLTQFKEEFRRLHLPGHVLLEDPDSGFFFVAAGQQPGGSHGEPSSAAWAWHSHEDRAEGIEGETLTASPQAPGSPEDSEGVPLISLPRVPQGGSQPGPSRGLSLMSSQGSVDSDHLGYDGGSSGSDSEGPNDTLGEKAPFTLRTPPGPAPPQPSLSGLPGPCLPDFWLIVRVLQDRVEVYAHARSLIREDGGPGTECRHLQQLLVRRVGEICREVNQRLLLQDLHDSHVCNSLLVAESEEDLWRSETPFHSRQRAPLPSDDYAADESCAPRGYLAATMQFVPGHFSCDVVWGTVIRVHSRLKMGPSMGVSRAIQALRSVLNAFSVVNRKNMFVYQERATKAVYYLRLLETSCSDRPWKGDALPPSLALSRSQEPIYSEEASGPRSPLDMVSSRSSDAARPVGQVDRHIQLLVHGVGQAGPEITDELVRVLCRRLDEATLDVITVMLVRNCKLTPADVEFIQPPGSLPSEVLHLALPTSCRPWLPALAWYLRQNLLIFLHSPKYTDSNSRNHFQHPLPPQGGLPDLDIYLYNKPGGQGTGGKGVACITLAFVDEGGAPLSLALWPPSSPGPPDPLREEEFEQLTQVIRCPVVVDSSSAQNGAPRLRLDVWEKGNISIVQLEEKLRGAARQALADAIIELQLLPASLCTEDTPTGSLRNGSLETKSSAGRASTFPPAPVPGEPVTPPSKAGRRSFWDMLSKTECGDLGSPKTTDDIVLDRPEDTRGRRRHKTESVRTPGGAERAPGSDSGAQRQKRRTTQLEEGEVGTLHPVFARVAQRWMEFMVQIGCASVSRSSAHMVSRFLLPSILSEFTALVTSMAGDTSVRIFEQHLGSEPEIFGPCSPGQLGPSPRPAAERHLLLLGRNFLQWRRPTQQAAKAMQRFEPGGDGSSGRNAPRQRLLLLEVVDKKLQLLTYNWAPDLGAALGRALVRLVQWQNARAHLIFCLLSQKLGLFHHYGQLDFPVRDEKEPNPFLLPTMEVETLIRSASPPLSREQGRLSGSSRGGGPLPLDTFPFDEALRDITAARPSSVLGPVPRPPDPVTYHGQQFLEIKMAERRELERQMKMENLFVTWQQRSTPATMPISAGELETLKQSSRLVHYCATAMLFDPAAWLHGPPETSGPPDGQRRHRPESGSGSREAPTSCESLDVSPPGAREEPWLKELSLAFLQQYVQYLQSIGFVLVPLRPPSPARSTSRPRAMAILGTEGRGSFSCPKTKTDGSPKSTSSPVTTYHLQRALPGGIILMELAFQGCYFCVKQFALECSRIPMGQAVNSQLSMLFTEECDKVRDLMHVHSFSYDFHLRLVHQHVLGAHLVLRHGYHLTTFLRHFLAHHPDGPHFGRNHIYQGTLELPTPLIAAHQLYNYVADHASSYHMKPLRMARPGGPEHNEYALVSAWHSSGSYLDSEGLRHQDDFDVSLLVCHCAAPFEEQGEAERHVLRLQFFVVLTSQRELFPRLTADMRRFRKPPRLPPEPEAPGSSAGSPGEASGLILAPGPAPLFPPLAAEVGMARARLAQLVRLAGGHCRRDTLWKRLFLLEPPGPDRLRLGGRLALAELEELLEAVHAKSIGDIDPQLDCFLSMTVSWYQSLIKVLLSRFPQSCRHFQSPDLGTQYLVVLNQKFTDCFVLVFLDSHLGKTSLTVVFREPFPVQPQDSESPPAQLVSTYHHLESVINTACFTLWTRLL
UniProt O75486: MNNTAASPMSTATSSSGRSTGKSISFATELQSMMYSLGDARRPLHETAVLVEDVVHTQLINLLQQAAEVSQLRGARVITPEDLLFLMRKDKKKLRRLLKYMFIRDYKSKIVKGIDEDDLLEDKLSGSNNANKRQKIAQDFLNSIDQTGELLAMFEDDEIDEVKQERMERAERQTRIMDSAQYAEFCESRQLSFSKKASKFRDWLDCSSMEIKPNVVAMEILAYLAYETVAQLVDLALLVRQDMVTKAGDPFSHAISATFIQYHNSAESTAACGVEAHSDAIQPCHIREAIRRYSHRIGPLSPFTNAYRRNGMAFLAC
UniProt Q6NVH7: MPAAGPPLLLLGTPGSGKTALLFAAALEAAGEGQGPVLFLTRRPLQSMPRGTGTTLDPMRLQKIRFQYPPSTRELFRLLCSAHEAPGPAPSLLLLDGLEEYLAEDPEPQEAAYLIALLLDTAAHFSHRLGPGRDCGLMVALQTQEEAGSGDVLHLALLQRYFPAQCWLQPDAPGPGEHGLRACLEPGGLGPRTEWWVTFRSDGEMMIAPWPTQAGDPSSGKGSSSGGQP
UniProt Q8NFX7: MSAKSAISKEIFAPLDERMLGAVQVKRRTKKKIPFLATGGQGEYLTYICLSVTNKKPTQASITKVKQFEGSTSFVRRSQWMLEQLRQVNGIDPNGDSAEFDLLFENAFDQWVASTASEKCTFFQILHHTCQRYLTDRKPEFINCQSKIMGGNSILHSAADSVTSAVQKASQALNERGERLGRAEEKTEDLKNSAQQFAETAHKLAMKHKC
UniProt Q6UWL2: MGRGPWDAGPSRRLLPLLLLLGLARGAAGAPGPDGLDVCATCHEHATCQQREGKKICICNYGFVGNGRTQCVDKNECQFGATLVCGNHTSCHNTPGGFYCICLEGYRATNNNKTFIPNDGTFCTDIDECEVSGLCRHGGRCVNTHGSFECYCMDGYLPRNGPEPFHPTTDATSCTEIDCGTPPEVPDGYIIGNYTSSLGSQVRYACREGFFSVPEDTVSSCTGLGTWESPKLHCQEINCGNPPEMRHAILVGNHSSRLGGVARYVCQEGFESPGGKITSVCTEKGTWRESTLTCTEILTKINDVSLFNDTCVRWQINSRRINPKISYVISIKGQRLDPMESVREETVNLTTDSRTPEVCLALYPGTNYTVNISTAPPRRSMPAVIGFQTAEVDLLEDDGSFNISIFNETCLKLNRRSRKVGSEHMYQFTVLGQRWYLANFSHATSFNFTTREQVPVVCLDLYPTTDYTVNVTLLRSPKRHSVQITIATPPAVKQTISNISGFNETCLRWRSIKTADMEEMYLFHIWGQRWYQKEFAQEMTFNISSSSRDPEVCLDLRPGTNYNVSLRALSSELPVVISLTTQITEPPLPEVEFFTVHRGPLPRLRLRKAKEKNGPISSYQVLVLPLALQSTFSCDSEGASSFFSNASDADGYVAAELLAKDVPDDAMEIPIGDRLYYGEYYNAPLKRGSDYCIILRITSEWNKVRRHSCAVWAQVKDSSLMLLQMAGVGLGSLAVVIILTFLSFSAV

Compound: NC1(c2ccc(-c3nc4ccn5c(=O)[nH]nc5c4cc3-c3ccccc3)cc2)CCC1
Test: log2 fold change, soluble protein after heating vs DMSO (PISA); higher = thermal stabilisation; K562 lysate, 10 uM; active = over 0.2 and 3.5 SD of the protein, either way, in both replicates (recomputed)
Method in brief: (§1)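 Soluble protein was defined as the supernatant remaining after 21,000xg for 90 min, following pooling of heated aliquots and adjustment to 0.5% NP-40 at 4°C. Before that, crude K562 extract at 1 mg/mL protein in PBS pH 7.4 with 1 mM MgCl2 was treated with 10 μM compound for 30 min and heated for 3 min across 48°C-58°C. Quantification used TMTpro 16plex LC-MS/MS with channel sums equalised, and values are log-two fold changes in thermal stability relative to solvent controls from duplicates.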

| Target | log2 fold change |
| --- | --- |
| SUSD3 (UniProt Q96L08) | inactive: 0.101 |
| SVBP (UniProt Q8N300) | inactive: 0.174 |
| SYNGR1 isoform 2 (UniProt O43759) | inactive: -0.329 |
| TAF13 (UniProt Q15543) | inactive: -0.016 |
| TAF5 (UniProt Q15542) | inactive: 0.049 |
| STRADB (UniProt Q9C0K7) | inactive: 0.141 |
| SYNCRIP isoform 3 (UniProt O60506) | inactive: -0.205 |
| SUN2 isoform 2 (UniProt Q9UH99) | inactive: 0.06 |
| STK3 isoform 2 (UniProt Q13188) | inactive: -0.01 |
| SZT2 (UniProt Q5T011) | inactive: -0.046 |
| STON1 isoform 2 (UniProt Q9Y6Q2) | inactive: -0.095 |
| STK38L (UniProt Q9Y2H1) | inactive: -0.046 |
| SUPT3H (UniProt O75486) | inactive: -0.026 |
| SWSAP1 (UniProt Q6NVH7) | inactive: 0.233 |
| TADA2A (UniProt O75478) | inactive: 0.02 |
| SULT1A3 isoform 3 (UniProt P0DMM9) | inactive: 0.05 |
| STN1 (UniProt Q9H668) | inactive: 0.02 |
| STXBP6 (UniProt Q8NFX7) | inactive: 0.114 |
| SUSD1 isoform 2 (UniProt Q6UWL2) | inactive: -0.06 |
| STK16 (UniProt O75716) | inactive: 0.16 |
| STK10 (UniProt O94804) | inactive: -0.287 |

Compound: NCC(=O)Nc1ccc(-n2nc(C(F)(F)F)cc2-c2ccc3c(ccc4ccccc43)c2)cc1
Test: as above
Method in brief: as §1

| Target | log2 fold change |
| --- | --- |
| TAF13 (UniProt Q15543) | inactive: 0.099 |
| TAF5 (UniProt Q15542) | inactive: 0.001 |
| STS (UniProt P08842) | inactive: 0.214 |
| TAF1C (UniProt Q15572) | inactive: 0.128 |
| SUCO isoform 2 (UniProt Q9UBS9) | inactive: 0.04 |
| SYNCRIP isoform 3 (UniProt O60506) | inactive: 0.045 |
| SUN2 isoform 2 (UniProt Q9UH99) | inactive: 0.095 |
| TAF1A (UniProt Q15573) | inactive: 0.05 |
| STK3 isoform 2 (UniProt Q13188) | inactive: 0.034 |
| SUFU (UniProt Q9UMX1) | inactive: -0.058 |
| STN1 (UniProt Q9H668) | inactive: -0.03 |
| TACC3 (UniProt C9JWI7) | inactive: 0.055 |
| STK16 (UniProt O75716) | inactive: -0.099 |

Compound: O=C(CCCCCCC(=O)Nc1ccccc1)NO [vorinostat]
Test: as above
Method in brief: as §1

| Target | log2 fold change |
| --- | --- |
| SUSD3 (UniProt Q96L08) | inactive: 0.312 |
| SVBP (UniProt Q8N300) | inactive: -0.311 |
| SYNGR1 isoform 2 (UniProt O43759) | inactive: -0.25 |
| TAF13 (UniProt Q15543) | inactive: 0.271 |
| TAF5 (UniProt Q15542) | inactive: 0.107 |
| STRADB (UniProt Q9C0K7) | inactive: 0.059 |
| SYNCRIP isoform 3 (UniProt O60506) | inactive: 0.044 |
| SUN2 isoform 2 (UniProt Q9UH99) | inactive: 0.091 |
| STK3 isoform 2 (UniProt Q13188) | inactive: -0.05 |
| SZT2 (UniProt Q5T011) | active: 1.2 |
| STON1 isoform 2 (UniProt Q9Y6Q2) | inactive: 0.263 |
| STK38L (UniProt Q9Y2H1) | inactive: -0.162 |
| SUPT3H (UniProt O75486) | inactive: -0.239 |
| SWSAP1 (UniProt Q6NVH7) | inactive: 0.022 |
| TADA2A (UniProt O75478) | inactive: -0.311 |
| SULT1A3 isoform 3 (UniProt P0DMM9) | inactive: -0.267 |
| STN1 (UniProt Q9H668) | inactive: -0.2 |
| STXBP6 (UniProt Q8NFX7) | inactive: -0.412 |
| SUSD1 isoform 2 (UniProt Q6UWL2) | inactive: 0.192 |
| STK16 (UniProt O75716) | inactive: -0.259 |
| STK10 (UniProt O94804) | inactive: 0.149 |

Compound: O=C(O)c1ccc2c(c1)nc(Nc1cccc(Cl)c1)c1ccncc12 [silmitasertib]
Test: as above
Method in brief: as §1

| Target | log2 fold change |
| --- | --- |
| SUSD3 (UniProt Q96L08) | inactive: -0.129 |
| SVBP (UniProt Q8N300) | inactive: -0.049 |
| SYNGR1 isoform 2 (UniProt O43759) | inactive: 0.138 |
| TAF13 (UniProt Q15543) | inactive: -0.034 |
| TAF5 (UniProt Q15542) | inactive: -0.076 |
| STRADB (UniProt Q9C0K7) | inactive: -0.416 |
| SYNCRIP isoform 3 (UniProt O60506) | inactive: 0.202 |
| SUN2 isoform 2 (UniProt Q9UH99) | inactive: 0.134 |
| STK3 isoform 2 (UniProt Q13188) | inactive: 0.022 |
| SZT2 (UniProt Q5T011) | inactive: -0.081 |
| STON1 isoform 2 (UniProt Q9Y6Q2) | inactive: -0.132 |
| STK38L (UniProt Q9Y2H1) | inactive: 0.184 |
| SUPT3H (UniProt O75486) | inactive: 0.048 |
| SWSAP1 (UniProt Q6NVH7) | inactive: 0.021 |
| TADA2A (UniProt O75478) | inactive: 0.053 |
| SULT1A3 isoform 3 (UniProt P0DMM9) | inactive: 0.053 |
| STN1 (UniProt Q9H668) | inactive: -0.111 |
| STXBP6 (UniProt Q8NFX7) | inactive: 0.087 |
| SUSD1 isoform 2 (UniProt Q6UWL2) | inactive: 0.141 |
| STK16 (UniProt O75716) | inactive: 0.138 |
| STK10 (UniProt O94804) | inactive: -0.107 |
